# From the supplement of paper PMC8728848
# This is one part of the list.
# What was measured:
# Test in all cases: glycan array binding signal (z-score within array); higher = stronger binding
# Details in all cases: glycan notation: IUPAC condensed, linker removed
# [1] = target: Gal(a1-3)Gal(b1-4)GlcNAc(b1-2)Man
# Outline: (§1)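 Glycan array binding is given as a within-array Z-score, which can be read as non-binding when negative. The arrays, 3228 of them, came from the Consortium for Functional Glycomics database and were retained only where the protein sequence was available. Z-scores were averaged across arrays of the same protein sequence at different concentrations or buffers and across linkers.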
# [2] = target: Gal(a1-3)Gal(b1-4)GlcNAc(b1-2)Man(a1-3)[Gal(a1-3)Gal(b1-4)GlcNAc(b1-2)Man(a1-6)]Man(b1-4)GlcNAc(b1-4)GlcNAc
# Outline: as §1
# [3] = target: Gal(a1-3)Gal(b1-4)GlcNAc(b1-3)GalNAc
# Outline: as §1
# [4] = target: Gal(a1-3)Gal(b1-4)GlcNAc(b1-6)GalNAc
# Outline: as §1
# [5] = target: Gal(a1-3)Gal(b1-4)[Fuc(a1-3)]GlcNAc
# Outline: as §1
# [6] = target: Gal(a1-3)Gal(b1-4)[Fuc(a1-3)]GlcNAc(b1-2)Man(a1-3)[Gal(a1-3)Gal(b1-4)[Fuc(a1-3)]GlcNAc(b1-2)Man(a1-6)]Man(b1-4)GlcNAc(b1-4)GlcNAc
# Outline: as §1
# Gal(a1-3)GalNAc = target: Gal(a1-3)GalNAc
# Outline: as §1
# [7] = target: Gal(a1-3)[Gal(a1-4)]Gal(b1-4)GlcNAc
# Outline: as §1
# [8] = target: Gal(a1-4)Gal(b1-3)GlcNAc(b1-2)Man(a1-3)[Gal(a1-4)Gal(b1-3)GlcNAc(b1-2)Man(a1-6)]Man(b1-4)GlcNAc(b1-4)GlcNAc
# Outline: as §1
# Gal(a1-4)Gal(b1-4)Glc = target: Gal(a1-4)Gal(b1-4)Glc
# Outline: as §1
# Gal(a1-4)Gal(b1-4)GlcNAc = target: Gal(a1-4)Gal(b1-4)GlcNAc
# Outline: as §1
# [9] = target: Gal(a1-4)Gal(b1-4)GlcNAc(b1-2)Man(a1-3)[Gal(a1-4)Gal(b1-4)GlcNAc(b1-2)Man(a1-6)]Man(b1-4)GlcNAc(b1-4)GlcNAc
# Outline: as §1
# [10] = target: Gal(a1-4)Gal(b1-4)GlcNAc(b1-3)Gal(b1-4)Glc
# Outline: as §1
# Gal(a1-4)GlcNAc = target: Gal(a1-4)GlcNAc
# Outline: as §1
# Gal(a1-6)Glc = target: Gal(a1-6)Glc
# Outline: as §1
# Gal(b1-2)Gal = target: Gal(b1-2)Gal
# Outline: as §1
# Gal(b1-3)Gal = target: Gal(b1-3)Gal
# Outline: as §1
# Gal(b1-3)Gal(b1-4)GlcNAc = target: Gal(b1-3)Gal(b1-4)GlcNAc
# Outline: as §1
# Gal(b1-3)GalNAc = target: Gal(b1-3)GalNAc
# Outline: as §1
# [11] = target: Gal(b1-3)GalNAc(a1-3)[Fuc(a1-2)]Gal(b1-4)Glc
# Outline: as §1
# [12] = target: Gal(b1-3)GalNAc(a1-3)[Fuc(a1-2)]Gal(b1-4)GlcNAc
# Outline: as §1
# Gal(b1-3)GalNAc(b1-3)Gal = target: Gal(b1-3)GalNAc(b1-3)Gal
# Outline: as §1
# [13] = target: Gal(b1-3)GalNAc(b1-3)Gal(a1-4)Gal(b1-4)Glc
# Outline: as §1
# [14] = target: Gal(b1-3)GalNAc(b1-4)Gal(b1-4)Glc
# Outline: as §1
# [15] = target: Gal(b1-3)GalNAc(b1-4)[Neu5Ac(a2-3)]Gal(b1-4)Glc
# Outline: as §1
# Gal(b1-3)GlcNAc = target: Gal(b1-3)GlcNAc
# Outline: as §1
# [16] = target: Gal(b1-3)GlcNAc(a1-3)Gal(b1-4)GlcNAc
# Outline: as §1
# [17] = target: Gal(b1-3)GlcNAc(a1-6)Gal(b1-4)GlcNAc
# Outline: as §1
# Gal(b1-3)GlcNAc(b1-2)Man = target: Gal(b1-3)GlcNAc(b1-2)Man
# Outline: as §1
# [18] = target: Gal(b1-3)GlcNAc(b1-2)Man(a1-3)[Gal(b1-3)GlcNAc(b1-2)Man(a1-6)]Man(b1-4)GlcNAc(b1-4)GlcNAc
# Outline: as §1
# [19] = target: Gal(b1-3)GlcNAc(b1-2)Man(a1-3)[Gal(b1-3)GlcNAc(b1-2)Man(a1-6)]Man(b1-4)GlcNAc(b1-4)[Fuc(a1-6)]GlcNAc
# Outline: as §1
# [20] = target: Gal(b1-3)GlcNAc(b1-2)Man(a1-3)[GlcNAc(b1-4)][Gal(b1-3)GlcNAc(b1-2)Man(a1-6)]Man(b1-4)GlcNAc(b1-4)GlcNAc
# Outline: as §1
# [21] = target: Gal(b1-3)GlcNAc(b1-2)[Gal(b1-3)GlcNAc(b1-6)]Man(a1-6)[Gal(b1-3)GlcNAc(b1-2)Man(a1-3)]Man(b1-4)GlcNAc(b1-4)GlcNAc
# Outline: as §1
# [22] = target: Gal(b1-3)GlcNAc(b1-3)Gal(b1-3)GlcNAc
# Outline: as §1
# [23] = target: Gal(b1-3)GlcNAc(b1-3)Gal(b1-4)Glc
# Outline: as §1
# [24] = target: Gal(b1-3)GlcNAc(b1-3)Gal(b1-4)GlcNAc
# Outline: as §1
# [25] = target: Gal(b1-3)GlcNAc(b1-3)Gal(b1-4)GlcNAc(b1-2)Man(a1-3)[Gal(b1-3)GlcNAc(b1-3)Gal(b1-4)GlcNAc(b1-2)Man(a1-6)]Man(b1-4)GlcNAc(b1-4)GlcNAc
# Outline: as §1
# [26] = target: Gal(b1-3)GlcNAc(b1-3)Gal(b1-4)GlcNAc(b1-2)[Gal(b1-3)GlcNAc(b1-3)Gal(b1-4)GlcNAc(b1-6)]Man(a1-6)[Gal(b1-3)GlcNAc(b1-3)Gal(b1-4)GlcNAc(b1-2)Man(a1-3)]Man(b1-4)GlcNAc(b1-4)[Fuc(a1-6)]GlcNAc
# Outline: as §1
# [27] = target: Gal(b1-3)GlcNAc(b1-3)Gal(b1-4)GlcNAc(b1-3)Gal(b1-4)GlcNAc(b1-2)[Gal(b1-3)GlcNAc(b1-3)Gal(b1-4)GlcNAc(b1-3)Gal(b1-4)GlcNAc(b1-6)]Man(a1-6)[Gal(b1-3)GlcNAc(b1-3)Gal(b1-4)GlcNAc(b1-3)Gal(b1-4)GlcNAc(b1-2)Man(a1-3)]Man(b1-4)GlcNAc(b1-4)[Fuc(a1-6)]GlcNAc
# Outline: as §1
# [28] = target: Gal(b1-3)GlcNAc(b1-3)Gal(b1-4)GlcNAc(b1-6)[Gal(b1-3)GlcNAc(b1-3)]Gal(b1-4)Glc
# Outline: as §1
# [29] = target: Gal(b1-3)GlcNAc(b1-3)Gal(b1-4)[Fuc(a1-3)]GlcNAc
# Outline: as §1
# [30] = target: Gal(b1-3)GlcNAc(b1-3)Gal(b1-4)[Fuc(a1-3)]GlcNAc(b1-6)[Gal(b1-3)GlcNAc(b1-3)]Gal(b1-4)Glc
# Outline: as §1
# [31] = target: Gal(b1-3)GlcNAc(b1-3)GalNAc
# Outline: as §1
# [32] = target: Gal(b1-3)GlcNAc(b1-6)Gal(b1-4)GlcNAc
# Outline: as §1
# [33] = target: Gal(b1-3)GlcNAc(b1-6)GalNAc
# Outline: as §1
# [34] = target: Gal(b1-3)GlcNAc(b1-6)[Gal(b1-3)]GalNAc
# Outline: as §1
# Gal(b1-3)GlcNAc6S = target: Gal(b1-3)GlcNAc6S
# Outline: as §1
# [35] = target: Gal(b1-3)[Fuc(a1-4)]GlcNAc
# Outline: as §1
# [36] = target: Gal(b1-3)[Fuc(a1-4)]GlcNAc(b1-2)Man
# Outline: as §1
# [37] = target: Gal(b1-3)[Fuc(a1-4)]GlcNAc(b1-2)Man(a1-3)[Gal(b1-3)[Fuc(a1-4)]GlcNAc(b1-2)Man(a1-6)]Man(b1-4)GlcNAc(b1-4)[Fuc(a1-6)]GlcNAc
# Outline: as §1
# [38] = target: Gal(b1-3)[Fuc(a1-4)]GlcNAc(b1-3)Gal(b1-3)[Fuc(a1-4)]GlcNAc
# Outline: as §1
# [39] = target: Gal(b1-3)[Fuc(a1-4)]GlcNAc(b1-3)Gal(b1-4)[Fuc(a1-3)]GlcNAc
# Outline: as §1
# [40] = target: Gal(b1-3)[Fuc(a1-4)]GlcNAc(b1-6)GalNAc
# Outline: as §1
# [41] = target: Gal(b1-3)[GlcNAc(b1-6)]GalNAc
# Outline: as §1
# [42] = target: Gal(b1-3)[Neu5Ac(a2-6)]GalNAc
# Outline: as §1
# [43] = target: Gal(b1-3)[Neu5Ac(a2-6)]GlcNAc(b1-4)Gal(b1-4)Glc
# Outline: as §1
# [44] = target: Gal(b1-3)[Neu5Ac(b2-6)]GalNAc
# Outline: as §1
# Gal(b1-4)Gal = target: Gal(b1-4)Gal
# Outline: as §1
# [45] = target: Gal(b1-4)GalNAc(a1-3)[Fuc(a1-2)]Gal(b1-4)GlcNAc
# Outline: as §1
# [46] = target: Gal(b1-4)GalNAc(b1-3)[Fuc(a1-2)]Gal(b1-4)GlcNAc
# Outline: as §1
binder,measurement,setting,value
"Thrombomodulin Extracellular (Mus musculus), P15306 (protein) MLGIFFLGVLAPASLGLSALAKLQPTGSQCVEHECFALFQGPATFLDASQACQRLQGHLMTVRSSVAADVISLLLSQSSMDLGPWIGLQLPQGCDDPVHLGPLRGFQWVTGDNHTSYSRWARPNDQTAPLCGPLCVTVSTATEAAPGEPAWEEKPCETETQGFLCEFYFTASCRPLTVNTRDPEAAHISSTYNTPFGVSGADFQTLPVGSSAAVEPLGLELVCRAPPGTSEGHWAWEATGAWNCSVENGGCEYLCNRSTNEPRCLCPRDMDLQADGRSCARPVVQSCNELCEHFCVSNAEVPGSYSCMCETGYQLAADGHRCEDVDDCKQGPNPCPQLCVNTKGGFECFCYDGYELVDGECVELLDPCFGSNCEFQCQPVSPTDYRCICAPGFAPKPDEPHKCEMFCNETSCPADCDPNSPTVCECPEGFILDEGSVCTDIDECSQGECFTSECRNFPGSYECICGPDTALAGQISKDCDPIPVREDTKEEEGSGEPPVSPTPGSPTGPPSARPVHSGVLIGISIASLSLVVALLALLCHLRKKQGAARAELEYKCASSAKEVVLQHVRTDRTLQKF",glycan array binding signal (z-score),[1],-2.66
same,glycan array binding signal (z-score),[2],-0.154
same,glycan array binding signal (z-score),[3],-1.21
same,glycan array binding signal (z-score),[4],-0.878
same,glycan array binding signal (z-score),[5],1.11
same,glycan array binding signal (z-score),[6],1.59
same,glycan array binding signal (z-score),Gal(a1-3)GalNAc,-0.939
same,glycan array binding signal (z-score),[7],-1.16
same,glycan array binding signal (z-score),[8],-0.918
same,glycan array binding signal (z-score),Gal(a1-4)Gal(b1-4)Glc,1.19
same,glycan array binding signal (z-score),Gal(a1-4)Gal(b1-4)GlcNAc,-0.239
same,glycan array binding signal (z-score),[9],1.73
same,glycan array binding signal (z-score),[10],-0.341
same,glycan array binding signal (z-score),Gal(a1-4)GlcNAc,-1.23
same,glycan array binding signal (z-score),Gal(a1-6)Glc,-1.17
same,glycan array binding signal (z-score),Gal(b1-2)Gal,1.03
same,glycan array binding signal (z-score),Gal(b1-3)Gal,-0.287
same,glycan array binding signal (z-score),Gal(b1-3)Gal(b1-4)GlcNAc,-0.77
same,glycan array binding signal (z-score),Gal(b1-3)GalNAc,-0.155
same,glycan array binding signal (z-score),[11],0.62
same,glycan array binding signal (z-score),[12],-1.05
same,glycan array binding signal (z-score),Gal(b1-3)GalNAc(b1-3)Gal,0.377
same,glycan array binding signal (z-score),[13],-0.43
same,glycan array binding signal (z-score),[14],0.354
same,glycan array binding signal (z-score),[15],-0.458
same,glycan array binding signal (z-score),Gal(b1-3)GlcNAc,-0.403
same,glycan array binding signal (z-score),[16],0.457
same,glycan array binding signal (z-score),[17],0.328
same,glycan array binding signal (z-score),Gal(b1-3)GlcNAc(b1-2)Man,-0.824
same,glycan array binding signal (z-score),[18],1.49
same,glycan array binding signal (z-score),[19],-0.735
same,glycan array binding signal (z-score),[20],0.655
same,glycan array binding signal (z-score),[21],0.399
same,glycan array binding signal (z-score),[22],-0.59
same,glycan array binding signal (z-score),[23],-0.39
same,glycan array binding signal (z-score),[24],-0.646
same,glycan array binding signal (z-score),[25],-0.991
same,glycan array binding signal (z-score),[26],0.113
same,glycan array binding signal (z-score),[27],0.543
same,glycan array binding signal (z-score),[28],-0.013
same,glycan array binding signal (z-score),[29],-1.08
same,glycan array binding signal (z-score),[30],-0.684
same,glycan array binding signal (z-score),[31],-0.059
same,glycan array binding signal (z-score),[32],0.105
same,glycan array binding signal (z-score),[33],0.022
same,glycan array binding signal (z-score),[34],-1.19
same,glycan array binding signal (z-score),Gal(b1-3)GlcNAc6S,0.533
same,glycan array binding signal (z-score),[35],-0.053
same,glycan array binding signal (z-score),[36],-0.285
same,glycan array binding signal (z-score),[37],2.94
same,glycan array binding signal (z-score),[38],-0.811
same,glycan array binding signal (z-score),[39],-0.158
same,glycan array binding signal (z-score),[40],-0.971
same,glycan array binding signal (z-score),[41],0.373
same,glycan array binding signal (z-score),[42],-0.132
same,glycan array binding signal (z-score),[43],-1.03
same,glycan array binding signal (z-score),[44],-1.11
same,glycan array binding signal (z-score),Gal(b1-4)Gal,-1.25
same,glycan array binding signal (z-score),[45],0.516
same,glycan array binding signal (z-score),[46],-0.664
